Results are given in words; binding and its absence hold for the method and conditions named. For part of these data: A result given as binding can be weak or reduced; the word gives no strength. For part of these data: Sequences can lack the tags named with a protein. For part of these data: Binding seen in cells or lysates may run through a third protein.

Test [1] has as its target T1, SE C-terminal region (469-720 aa) (Arabidopsis) (UniProt Q9ZVD0).
T1 sequence: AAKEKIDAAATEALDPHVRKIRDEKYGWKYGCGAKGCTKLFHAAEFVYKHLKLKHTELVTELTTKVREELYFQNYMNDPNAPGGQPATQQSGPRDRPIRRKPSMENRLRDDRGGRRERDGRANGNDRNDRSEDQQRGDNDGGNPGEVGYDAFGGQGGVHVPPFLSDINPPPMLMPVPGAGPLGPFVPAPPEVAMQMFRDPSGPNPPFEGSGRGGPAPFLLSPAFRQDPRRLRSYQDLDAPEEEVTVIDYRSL
The test is described as follows: two-hybrid.

For test [2], the target named is T2, 20S Proteasome Alpha Subunit G1 (PAG1) (Arabidopsis) (UniProt O23715).
T2 sequence: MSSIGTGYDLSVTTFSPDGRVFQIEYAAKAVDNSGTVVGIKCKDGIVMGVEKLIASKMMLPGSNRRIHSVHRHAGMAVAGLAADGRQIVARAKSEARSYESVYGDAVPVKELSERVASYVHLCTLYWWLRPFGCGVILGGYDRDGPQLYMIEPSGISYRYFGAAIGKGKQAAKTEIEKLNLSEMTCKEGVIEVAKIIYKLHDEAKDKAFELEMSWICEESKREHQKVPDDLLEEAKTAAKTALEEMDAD
The test is described as follows: two-hybrid.

Test [3] deals with T3, BD-SE (SERRATE, full length) (Arabidopsis) (UniProt Q9ZVD0).
T3 sequence: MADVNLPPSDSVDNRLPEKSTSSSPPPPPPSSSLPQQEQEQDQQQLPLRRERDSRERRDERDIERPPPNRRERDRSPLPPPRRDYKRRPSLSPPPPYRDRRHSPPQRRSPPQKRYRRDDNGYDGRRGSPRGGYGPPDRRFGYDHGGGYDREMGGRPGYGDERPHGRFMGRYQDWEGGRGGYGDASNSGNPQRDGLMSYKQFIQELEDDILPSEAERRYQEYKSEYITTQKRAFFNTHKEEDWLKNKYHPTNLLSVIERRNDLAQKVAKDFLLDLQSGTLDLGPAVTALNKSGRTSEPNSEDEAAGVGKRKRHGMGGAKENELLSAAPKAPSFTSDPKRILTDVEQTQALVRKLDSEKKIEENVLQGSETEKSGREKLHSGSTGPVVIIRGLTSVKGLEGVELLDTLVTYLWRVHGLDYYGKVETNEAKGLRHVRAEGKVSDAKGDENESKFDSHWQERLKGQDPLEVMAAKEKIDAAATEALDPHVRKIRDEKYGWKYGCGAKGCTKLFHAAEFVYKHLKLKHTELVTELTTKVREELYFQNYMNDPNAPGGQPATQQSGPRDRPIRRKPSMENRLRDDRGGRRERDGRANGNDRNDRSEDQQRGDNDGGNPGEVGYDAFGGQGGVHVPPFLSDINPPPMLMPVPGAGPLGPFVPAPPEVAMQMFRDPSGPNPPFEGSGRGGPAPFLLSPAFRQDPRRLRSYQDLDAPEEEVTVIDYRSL
The test is described as follows: two-hybrid.

In test [4] the target is T4, cYFP-SE (Arabidopsis) (UniProt Q9ZVD0).
T4 sequence: T3 sequence
The test is described as follows: split reporter.

As for AD-SAID1 (full length) (Arabidopsis), the binding result in test [1] was “binds”; in test [2], “no binding”; in test [3], “binds”. Take AD-SAID2 (Arabidopsis): the results for the binding result in test [2] and in test [3] were “no binding” and “binds”, respectively. For “SAID1 middle part (377-580aa) (Arabidopsis) (domain or fragment)”, the binding result in test [3] is listed as “binds”. Turning to nYFP-SAID1 (Arabidopsis), the binding result in test [4] is recorded as “binds”. Still for that read-out and setting: then nYFP-SAID2 (Arabidopsis), with “binds”. Take “pre-mRNA processing 4 kinase A (PRP4KA) (Arabidopsis) (enzyme)”: the binding result in test [3] is listed as “binds”.

For the origin of these results see paper doi:10.1101/2022.09.13.507836.
